The values that follow come from publication PMC8500273.

By UniProt entry, the sequences of proteins in these tests, tags left out.
UniProt P61081: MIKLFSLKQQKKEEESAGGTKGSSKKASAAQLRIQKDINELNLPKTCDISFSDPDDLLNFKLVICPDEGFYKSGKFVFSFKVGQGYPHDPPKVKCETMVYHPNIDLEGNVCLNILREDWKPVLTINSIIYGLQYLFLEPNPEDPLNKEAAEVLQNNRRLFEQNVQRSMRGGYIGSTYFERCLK
UniProt P31146: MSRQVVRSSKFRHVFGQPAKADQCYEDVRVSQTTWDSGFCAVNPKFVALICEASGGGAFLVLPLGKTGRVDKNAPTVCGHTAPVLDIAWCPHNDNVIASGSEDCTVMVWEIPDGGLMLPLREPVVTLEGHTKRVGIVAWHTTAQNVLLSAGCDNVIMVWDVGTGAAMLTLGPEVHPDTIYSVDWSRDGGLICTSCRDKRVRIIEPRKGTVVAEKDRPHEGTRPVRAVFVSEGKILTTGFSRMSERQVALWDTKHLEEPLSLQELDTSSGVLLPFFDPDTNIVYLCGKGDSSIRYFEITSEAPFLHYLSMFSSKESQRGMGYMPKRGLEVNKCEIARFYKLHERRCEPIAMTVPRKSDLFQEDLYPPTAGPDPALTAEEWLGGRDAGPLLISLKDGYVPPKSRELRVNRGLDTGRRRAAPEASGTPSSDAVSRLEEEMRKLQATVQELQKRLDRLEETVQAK

Results are given in words; binding and its absence hold for the method and conditions named. In cells and extracts the contact can be indirect. Some binding calls cover weakened binding; strength is not graded here. Tags and fused reporters may be left off the sequences shown.

Common to all, as to assay: co-IP; HEK293 cells overexpressing the tagged proteins; Co-IP lysis buffer (50 mM Tris-HCl, 5 mM EDTA, 150 mM NaCl, 0.5% Nonidet-P40, 10% glycerol, pH 7.4); M2-Flag, anti-His or anti-Myc beads overnight at 4°C; western blot; for Coro1a with Rab7a also with Trim4 siRNA and 100 nM MLN4924 for 12 h
(In western blotting, separated proteins are transferred to a membrane and probed.)

Test [1] addresses T1, mCherry-hTRIM4-His (human) (UniProt Q9C037).
T1 sequence: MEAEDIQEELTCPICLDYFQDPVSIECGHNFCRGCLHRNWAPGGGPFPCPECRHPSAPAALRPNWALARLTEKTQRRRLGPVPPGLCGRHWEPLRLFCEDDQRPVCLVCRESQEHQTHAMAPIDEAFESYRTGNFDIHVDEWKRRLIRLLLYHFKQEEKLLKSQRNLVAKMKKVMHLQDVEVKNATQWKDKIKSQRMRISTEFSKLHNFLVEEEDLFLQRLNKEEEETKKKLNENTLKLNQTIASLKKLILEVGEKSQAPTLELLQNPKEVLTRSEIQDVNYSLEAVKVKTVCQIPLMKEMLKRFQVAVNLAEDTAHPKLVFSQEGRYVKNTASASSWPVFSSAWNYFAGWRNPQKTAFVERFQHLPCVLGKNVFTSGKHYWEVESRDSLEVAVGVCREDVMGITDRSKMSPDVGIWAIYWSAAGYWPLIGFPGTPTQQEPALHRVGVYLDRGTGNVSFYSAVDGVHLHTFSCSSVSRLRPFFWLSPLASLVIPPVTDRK

The next test addresses T2, UBE2F-Myc-His (human) (UniProt Q969M7).
T2 sequence: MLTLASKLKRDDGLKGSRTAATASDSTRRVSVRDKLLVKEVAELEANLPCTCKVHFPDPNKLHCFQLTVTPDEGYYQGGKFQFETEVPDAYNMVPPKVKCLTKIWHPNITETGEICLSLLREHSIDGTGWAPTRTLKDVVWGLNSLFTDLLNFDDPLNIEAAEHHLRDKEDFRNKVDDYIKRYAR

Test [2] has as its target hUBE2M tagged with Myc (human) (UniProt P61081).

In the case of “mCherry-hCoro1a-Flag (from UniProt P31146 1-461)”, the binding entry in test [1] is recorded as “binds”.

B1: mCherry-hTRIM4-His (enzyme, UniProt Q9C037 1-500)
chain: MEAEDIQEELTCPICLDYFQDPVSIECGHNFCRGCLHRNWAPGGGPFPCPECRHPSAPAALRPNWALARLTEKTQRRRLGPVPPGLCGRHWEPLRLFCEDDQRPVCLVCRESQEHQTHAMAPIDEAFESYRTGNFDIHVDEWKRRLIRLLLYHFKQEEKLLKSQRNLVAKMKKVMHLQDVEVKNATQWKDKIKSQRMRISTEFSKLHNFLVEEEDLFLQRLNKEEEETKKKLNENTLKLNQTIASLKKLILEVGEKSQAPTLELLQNPKEVLTRSEIQDVNYSLEAVKVKTVCQIPLMKEMLKRFQVAVNLAEDTAHPKLVFSQEGRYVKNTASASSWPVFSSAWNYFAGWRNPQKTAFVERFQHLPCVLGKNVFTSGKHYWEVESRDSLEVAVGVCREDVMGITDRSKMSPDVGIWAIYWSAAGYWPLIGFPGTPTQQEPALHRVGVYLDRGTGNVSFYSAVDGVHLHTFSCSSVSRLRPFFWLSPLASLVIPPVTDRK
As for B1, the figures for the binding result (with UBE2F-Myc-His (human); in test [2]) were “binds” and “binds weakly”, respectively.
